These results are taken from the supplement of paper PMC3334620.

In all, about 33,000 sequences were measured (“E-score (-0.5 to 0.5)”: median about -0.016, highest 2% from about 0.3 on). This is one part of the list.

The target in the assay is T1, Yer184c (UniProt P39961).
T1 sequence: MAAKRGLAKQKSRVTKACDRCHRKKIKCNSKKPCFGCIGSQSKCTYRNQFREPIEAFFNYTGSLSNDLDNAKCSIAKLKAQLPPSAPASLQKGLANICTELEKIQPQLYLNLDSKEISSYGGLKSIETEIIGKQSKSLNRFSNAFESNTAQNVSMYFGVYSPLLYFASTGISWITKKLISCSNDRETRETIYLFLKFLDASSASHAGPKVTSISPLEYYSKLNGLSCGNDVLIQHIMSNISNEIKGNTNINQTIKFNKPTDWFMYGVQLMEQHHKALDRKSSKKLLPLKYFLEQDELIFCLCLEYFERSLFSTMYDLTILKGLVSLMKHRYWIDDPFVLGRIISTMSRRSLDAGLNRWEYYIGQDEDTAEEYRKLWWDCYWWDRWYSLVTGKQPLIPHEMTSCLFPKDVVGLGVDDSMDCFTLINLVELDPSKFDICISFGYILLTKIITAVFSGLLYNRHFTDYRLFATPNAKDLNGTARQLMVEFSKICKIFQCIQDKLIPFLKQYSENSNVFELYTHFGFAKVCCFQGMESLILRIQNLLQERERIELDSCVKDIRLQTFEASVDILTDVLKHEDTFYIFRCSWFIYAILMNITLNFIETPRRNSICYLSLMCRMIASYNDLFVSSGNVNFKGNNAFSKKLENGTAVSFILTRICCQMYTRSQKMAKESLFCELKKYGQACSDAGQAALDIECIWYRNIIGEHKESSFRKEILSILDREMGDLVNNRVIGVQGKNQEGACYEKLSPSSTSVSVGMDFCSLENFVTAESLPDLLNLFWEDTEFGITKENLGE
Nature of the assay: PBM E-score (8-mer binding enrichment) (E-score (-0.5 to 0.5)); higher = stronger / more preferred TF binding. As to conditions: protein concentration: 100 nM; construct: GST-full length. A digest of the protocol:
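Yeast transcription factors, full-length or as DNA-binding domains, were expressed with a GST tag using PURExpress in vitro transcription/translation. At about 100-200 nM they were applied to universal all-10-mer Agilent arrays, double-stranded by primer extension on fresh or once-stripped slides. Fluorescent anti-GST detected bound protein, and masliner normalised the scans. E-scores for ungapped eight-base words, pooled with reverse complements, came from the Universal PBM Analysis Suite.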
Turning to ATGCCCGC, the “PBM E-score” value is -0.0889. In the case of CAACTACC, the “PBM E-score” value was -0.0226. CGAGCGCA: the “PBM E-score” value was 0.129. As to TAGACGCA, the “PBM E-score” value was determined as 0.0173.

As for ACTTAAAC, the “PBM E-score” value amounted to 0.0716. On to CTGTCCAC, for which the “PBM E-score” value was -0.0573. AAATATAA: the “PBM E-score” value is 0.327. CCACGAGG: the “PBM E-score” value was -0.166. In the case of ACTACAGC, the “PBM E-score” value was -0.015. Regarding CCGGGCGA, the “PBM E-score” value is 0.0828. For the sequence AAACCGAG, the “PBM E-score” value was 0.177. Regarding ATGACACG, the “PBM E-score” value amounted to 0.0436. Consider AGCGTCGC, for which the “PBM E-score” value is -0.123. For the sequence GCATAATA, the “PBM E-score” value was found to be 0.18.

Turning to AGGACGGA, the “PBM E-score” value was -0.125. Take AAGCAGGG: the “PBM E-score” value is -0.147.

As to ACAATTTG, the “PBM E-score” value is -0.0492. The result for AAACTGTA reads 0.0379; that for GGTGGGGA, -0.00331. Take AGTGTAAT: the “PBM E-score” value was -0.0238. In the case of CACTAAAC, the “PBM E-score” value came out at 0.142.

AAACGGCG: the “PBM E-score” value was found to be 0.133. Turning to CCCATGCA, the “PBM E-score” value is -0.162.

As to TCTATAAA, the “PBM E-score” value amounted to 0.11. With CATCTTAC, the “PBM E-score” value was -0.139. Consider ACAACTAT, for which the “PBM E-score” value is 0.201. As for AGCATAGG, the “PBM E-score” value was -0.286. CGGATATC: the “PBM E-score” value was determined as 0.285.

Consider ATAGTCGA, for which the “PBM E-score” value worked out at 0.0238.

Turning to ACACTAGA, the “PBM E-score” value is 0.0639. AAGTAGGC: the “PBM E-score” value was -0.077.

With AGATGCCG, the “PBM E-score” value worked out at 0.24. The result for AGGGGATG reads -0.235; that for ACGATGGA, 0.0157. Take ATTGATGA: the “PBM E-score” value turned out to be 0.0515. Regarding CGGCCCAA, the “PBM E-score” value is 0.197. CGGAACCA: the “PBM E-score” value worked out at 0.338.

Take GACTAGCC: the “PBM E-score” value is -0.191. Consider ACCGCGAG, for which the “PBM E-score” value was -0.0856. Take TTAGTAAA: the “PBM E-score” value was 0.237. To GCTTGTTA belongs 0.0601; to GCCCTTTA, -0.293; to AATAAGCT, 0.155. For the sequence ACCACCAT, the “PBM E-score” value is -0.0904. In the case of GATTTAAA, the “PBM E-score” value was -0.00451. Take CGTCTTGC: the “PBM E-score” value was -0.128. Consider AGGGCTTC, for which the “PBM E-score” value is -0.0909.

As for GGCCGATA, the “PBM E-score” value is 0.264. Take ATCAAGAT: the “PBM E-score” value was determined as 0.0506. Consider TTCACGAA, for which the “PBM E-score” value is -0.0327. Regarding ATGGCTTA, the “PBM E-score” value was -0.00903. Take ACCTATCG: the “PBM E-score” value was -0.0246. TACTTTAA: the “PBM E-score” value came to 0.0235. For ACAAGGGG, the “PBM E-score” value was -0.21. To CAGGCCCC belongs -0.398. For CCAATATA, the “PBM E-score” value is -0.067. Take CATTCCGG: the “PBM E-score” value amounted to 0.318. The result for GCCATTAC reads -0.155; that for GCTATAGC, -0.149; that for AAGCTAGG, 0.0176. The result for CCCCAGTC reads -0.277. Regarding CAGCAATA, the “PBM E-score” value was 0.0101. With AGCCGAGA, the “PBM E-score” value was 0.326. In the case of GGCACCCC, the “PBM E-score” value was -0.327. As for ATAGACGC, the “PBM E-score” value amounted to 0.00262. As for CCGCTGCA, the “PBM E-score” value is -0.0816.

On to ATCAGGAA, for which the “PBM E-score” value was 0.068. Consider CTGTGACA, for which the “PBM E-score” value was -0.0291. To CTGCGAAG belongs -0.237. To AACAGAGC belongs 0.00129; to AACATCTG, -0.0891. With AATCTTCT, the “PBM E-score” value is -0.0361.

On to AGAATCCG, for which the “PBM E-score” value came to 0.252.

With TCGGGAGA, the “PBM E-score” value is -0.0578. Take AGACACGG: the “PBM E-score” value was determined as 0.0867. Take CTGTCTTA: the “PBM E-score” value was found to be 0.0838. On to ATGCCCCA, for which the “PBM E-score” value is -0.192. On to CGACTAGC, for which the “PBM E-score” value is -0.0269. As to CAAGGAGG, the “PBM E-score” value is -0.165. Take ACATTTTG: the “PBM E-score” value was determined as 0.00796. The result for CCACAAAG reads 0.0966; that for CCGAATAA, 0.346. ACCCACAT: the “PBM E-score” value is -0.0165. Take ACAGAAGA: the “PBM E-score” value stood at 0.029.

As to GTACGCTA, the “PBM E-score” value was -0.172.

Consider ACGGTGTG, for which the “PBM E-score” value is -0.0972.
